Reference: patent US10174005B2, “Fused pyrimidines as inhibitors of p97 complex” (Cleave Biosciences, Inc., priority 2014, dated 2019)

Tested on: Caco-2 cells

## CC(C)NCC(O)COc1ccc(CC(N)=O)cc1 (centres unmarked) [Atenolol]
pH 7.4 Caco-2, A to B
  Peff A B, Range: 0.69-1.80 × E-6 cm/sec
pH 7.4 Caco-2, B to A
  Peff B A, Range: 1.69-2.68 × E-6 cm/sec
